These are yes or no findings as the source states them, for the method shown. In cells and extracts the contact can be indirect. Some results given as binding are weak or reduced against the parent protein; the word gives no strength. Where a sequence is shown, tags or fusion partners need not be part of it.

Amino acid sequences for entries named in this document (tags omitted). A change or cut given only in a name is not applied to a line headed by its entry.
UniProt P63165: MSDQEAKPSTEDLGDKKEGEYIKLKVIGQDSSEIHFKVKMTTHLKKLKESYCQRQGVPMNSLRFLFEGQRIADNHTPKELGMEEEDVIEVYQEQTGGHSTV

The results in this text go back to US20160223570A1.

The target of experiment [1] is myc-SUMO-1 (SUMO-1 tagged with c-myc) (human) (UniProt P63165). Briefly: co-immunoprecipitation from transfected cells (FIGS. 22A-C).
Experiment [2] has the same target. Kind of experiment: co-immunoprecipitation with anti-c-myc antibody, Western blot.

B1: 3xFlag-PHB1 (wild type Prohibitin-1 with a triple Flag tag at the N-terminus) (protein, not shown: small tags and cut ends)
chain: AAKVFESIGKFGLALAVAGGVVNSALYNVDAGHRAVIFDRFRGVQDIVVGEGTHFLIPWVQKPIIFDCRSRPRNVPVITGSKDLQNVNITLRILFRPVASQLPRIFTSIGEDYDERVLPSITTEILKSVVARFDAGELITQRELVSRQVSDDLTERAATFGLILDDVSLTHLTFGKEFTEAVEAKQVAQQEAERARFVVEKAEQQKKAAIISAEGDSKAAELIANSLATAGDGLIELRKLEAAEDIAYQLSRSRNITYLPAGQSVLLQLPQ
Turning to B1, the binding entry in experiment [1] and in experiment [2] was “binds” each time.
